The record followed here is paper PMC8113569.

This assay concerns the target T1, IRF3, endogenous mouse (mouse (endogenous in BMDC)) (UniProt P70671).
T1 sequence: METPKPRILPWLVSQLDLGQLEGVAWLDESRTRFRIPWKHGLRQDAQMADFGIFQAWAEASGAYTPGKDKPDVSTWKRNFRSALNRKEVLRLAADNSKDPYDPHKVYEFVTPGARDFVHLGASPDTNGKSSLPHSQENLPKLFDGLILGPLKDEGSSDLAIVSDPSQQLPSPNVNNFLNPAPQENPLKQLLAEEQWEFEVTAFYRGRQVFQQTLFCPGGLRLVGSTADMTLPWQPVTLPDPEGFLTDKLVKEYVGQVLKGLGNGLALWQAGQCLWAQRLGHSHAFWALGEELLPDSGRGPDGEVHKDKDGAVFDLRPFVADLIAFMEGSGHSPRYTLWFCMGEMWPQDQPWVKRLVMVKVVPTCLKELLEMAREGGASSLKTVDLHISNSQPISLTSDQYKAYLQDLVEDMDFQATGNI
As to the kind of experiment: co-IP.

Results are given in words; binding and its absence hold for the method and conditions named. In cells and extracts the contact can be indirect. Some binding calls cover weakened binding; strength is not graded here.

B1: mitochondrial antiviral-signaling protein (MAVS), endogenous mouse (protein, UniProt Q8VCF0 1-503)
chain: MTFAEDKTYKYIRDNHSKFCCVDVLEILPYLSCLTASDQDRLRASYRQIGNRDTLWGLFNNLQRRPGWVEVFIRALQICELPGLADQVTRVYQSYLPPGTSLRSLEPLQLPDFPAAVSGPSAFAPGHNIPDHGLRETPSCPKPVQDTQPPESPVENSEQLLQTNSGAVARMSGGSLIPSPNQQALSPQPSREHQEQEPELGGAHAANVASVPIATYGPVSPTVSFQPLPRTALRTNLLSGVTVSALSADTSLSSSSTGSAFAKGAGDQAKAATCFSTTLTNSVTTSSVPSPRLVPVKTMSSKLPLSSKSTAAMTSTVLTNTAPSKLPSNSVYAGTVPSRVPASVAKAPANTIPPERNSKQAKETPEGPATKVTTGGNQTGPNSSIRSLHSGPEMSKPGVLVSQLDEPFSACSVDLAISPSSSLVSEPNHGPEENEYSSFRIQVDESPSADLLGSPEPLATQQPQEEEEHCASSMPWAKWLGATSALLAVFLAVMLYRSRRLAQ
Turning to B1, the binding entry is listed as “binds”.
